Publication PMC4731865 (Nature chemical biology, 2015)

Key:
postfusion RSV F = details: ITC, control
[1] = target: prefusion RSV F (DS-Cav1) (Human respiratory syncytial virus A, UniProt P03420, I379V/M447V/S155C/S190F/S290C/V207L); assay type: binding, RSV strain A2; details: ITC, 25 °C, PBS 1% DMSO; mean ± s.d. (n = 2)

O=c1n(Cc2nc3ccccc3n2CCCCO)c2cnccc2n1C1CC1 [BMS-433771]
Binding to postfusion RSV F (postfusion RSV F): no binding was detected
Stoichiometry of fusion inhibitor to trimeric prefusion RSV F [1]: 0.8 ± 0.21
